Measurements as given in PubChem BioAssay AID504648 (National Center for Advancing Translational Sciences (NCATS), 2011).
Among all 390,000 compounds or so, about 610 (0.16%) were called active. This list was built around the results that the source calls inconclusive (neither active nor inactive); the mix of calls is not that of the screen. Calls come from the whole dose curve; as a rule, active = well fitted inhibition curve with a large enough effect; inconclusive = small, poorly fitted or top-dose-only effect, or effect the other way, or another doubt; inactive = no such curve, though single readings can be large or run the other way. Potencies of inconclusive entries are doubtful fits and often do not repeat.

Test: Nrf2 qHTS screen for inhibitors: counterscreen for cytotoxicity
Settings: A549 ARE-Fluc cells, CellTiter-Fluor viability, 18-24 h; series mostly up to 46 µM
Outline: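 Cytotoxicity counterscreen: CellTiter-Fluor fluorescence was measured in A549 ARE_Fluc cells after 18-24 h of compound exposure in a concentration series. The subsequent BugLite luminescent read reports ARE-luciferase activity.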
Potency is the fitted concentration of half-maximal effect.

Row | Structure (SMILES) | Potency
1 | CCn1c(SCC(=O)Nc2cc(C)ccc2F)nnc1-c1ccccc1O | inactive
2 | Clc1ccc(C(Cn2ccnc2)OCc2c(Cl)cccc2Cl)c(Cl)c1 (centres undefined) | inactive
3 | Cc1cccc(NC(=O)COc2cccc3c2CCN(Cc2ccccc2)C3=O)c1C | inactive
4 | Cc1nc2ccn(Cc3ccco3)c(=O)c2cc1C(=O)NCc1ccc(Cl)cc1 | inactive
5 | Oc1ccc(Cl)cc1-c1cc(-c2cccc(Br)c2)n[nH]1 | inconclusive: 29.1 µM [falling, single point]
6 | COc1cc(NC2c3ccccc3C(=O)N2Cc2ccccc2Cl)cc(OC)c1 (centres undefined) | inconclusive: 32.6 µM [falling, partial curve, poor fit]
7 | CCCCn1c(SCC(=O)N2CCC(C)CC2)nc2cc(S(N)(=O)=O)ccc21 | inconclusive: 3.26 µM [activator, partial curve, poor fit]
8 | Cc1coc(C)c1C(=O)CC1(O)C(=O)N(C)c2ccc(Cl)cc21 (centres undefined) | inconclusive: 29.1 µM [activator, single point]
9 | CCCCNC(=S)Nc1ccc(C(F)(F)F)cc1 | inconclusive: 23.1 µM [falling, single point]
10 | Cn1nnc2cc(NC(=O)Nc3cccc(C(F)(F)F)c3)ccc21 | inactive
11 | CC(NC(=O)C12CC3CC(CC(C3)C1)C2)C(=O)N/N=C/C1=C(N2CCOCC2)C(=C\c2ccccc2)/CC1 (centres undefined) | inconclusive: 18.4 µM [falling, partial curve, poor fit]
12 | CC(C)CN1CCC(=O)N(C(CSc2ccc(Br)cc2)Cc2ccccc2)CC1 (centres undefined) | inactive
13 | CCCCNc1ccccc1C(=O)OCC(=O)Nc1ccc(S(N)(=O)=O)cc1 | inconclusive: 10.3 µM [falling, partial curve, poor fit]
14 | CC(C)(C)c1ccc(CN2N=Nc3ccccc3S2(=O)=O)cc1 | inconclusive: 20.6 µM [falling, single point]
15 | Cc1c(Cl)cccc1NC(=O)C(=O)NCCc1csc(-c2ccc(C(F)(F)F)cc2)n1 | inactive
16 | O=C(COC(=O)c1cc(-c2ccco2)nc2ccccc12)NCc1ccccc1 | inactive
17 | CC1CC(C)CN(CC(=O)N2CCCc3c2c(=O)oc2ccc(OCc4ccccc4)cc32)C1 (centres undefined) | inconclusive: 29.1 µM [falling, partial curve, poor fit]
18 | Cc1c(O)ccc2c(CN3CCN(CCO)CC3)cc(=O)oc12 | inconclusive: 20.6 µM [activator, single point]
19 | O=C1C=CC(=O)N1c1ccccc1N1C(=O)C=CC1=O | inconclusive: 29.1 µM [falling, single point]
20 | O=C(O)C1CCN(c2ccc([N+](=O)[O-])cc2[N+](=O)[O-])CC1 | inconclusive: 29.1 µM [falling, single point]
21 | N#Cc1cc2c(=O)n3ccccc3nc2n(-c2ccccc2Cl)c1=O | inconclusive: 20.6 µM [activator, partial curve]
22 | Cc1ccc(S(=O)(=O)N2CCCCC2)cc1C(=O)N1CCN(c2ccccn2)CC1 | inactive

Row | Structure (SMILES) | Potency
23 | CCCN(CCC)CCCNC(=O)C1c2cc(OC)c(OC)cc2C(=O)N(C)C1c1cccnc1 (centres undefined) | inconclusive: 0.517 µM [activator, full curve, poor fit]
24 | O=[N+]([O-])c1ccc(N2CCN(S(=O)(=O)c3cnc[nH]3)CC2)cc1 | inconclusive: 25.9 µM [falling, partial curve, poor fit]
25 | CC[n+]1c(/C=C/N(C)c2ccccc2)n(-c2ccccc2)c2ccc(-c3nc4ccccc4s3)cc21 | inconclusive: 18.4 µM [falling, single point]
26 | Cc1ccc2c(c1)C1(C)C(C(C)(C)N2C=O)C1(Cl)Cl (centres undefined) | inconclusive: 25.9 µM [activator, single point]
27 | COc1cccc(/C=c2\s/c(=C/C(=O)c3ccc(C)cc3)[nH]c2=O)c1OC | inconclusive: 18.4 µM [falling, partial curve, poor fit]
28 | Cc1ccc(OCC(=O)N/N=C\c2c(C)[nH]n(-c3ccccc3)c2=O)c([N+](=O)[O-])c1 | inconclusive: 32.6 µM [falling, partial curve, poor fit]
29 | Cc1cccc(N(C)C(=O)Cn2c(=O)oc3cc(S(=O)(=O)N4CCCCC4)ccc32)c1 | inactive
30 | COc1ccc(CNCCCNCc2ccc(OC)c(OC)c2)cc1OC | inconclusive: 16.4 µM [falling, partial curve, poor fit]
31 | CCC(NS(=O)(=O)c1cn(C)nc1C)c1ccccc1 (centres undefined) | inactive
32 | COc1ccc(C2Oc3ccccc3C3=C2C(c2cccs2)n2ncnc2N3)cc1 (centres undefined) | inconclusive: 18.4 µM [falling, single point]
33 | CCOc1ccc(OCc2ccc(C(=O)NN=Cc3ccc[nH]3)cc2)cc1 | inconclusive: 2.31 µM [falling, full curve]
34 | COc1ccc(C)cc1NC(=O)C(Sc1nnc(-c2ccncc2)n1-c1ccc(Cl)cc1)c1ccccc1 (centres undefined) | inactive
35 | COc1ccc(CNC(=O)CN2C(=O)C3CCCN3c3ncc(Cl)cc32)cc1 (centres undefined) | inactive
36 | CC(=O)Oc1ccc(N2C(=O)C3C(C2=O)C(C(=O)c2ccc(Cl)cc2)N2CCCC32)cc1 (centres undefined) | inconclusive: 29.1 µM [falling, single point]
37 | O=S(=O)([N-]c1nc2ccccc2nc1-[n+]1ccc(Cc2ccccc2)cc1)c1ccc(Br)s1 | inconclusive: 23.1 µM [falling, single point]
38 | COc1cc2c(cc1NC(=S)NC(=O)/C=C/c1ccco1)oc1ccccc12 | inconclusive: 29.1 µM [falling, partial curve, poor fit]
39 | Clc1ccccc1C1=Nn2c(nnc2-c2ccncc2)SC1 | inconclusive: 32.6 µM [activator, partial curve, poor fit]
40 | CC(=O)c1cccc(NC(=O)C2CCN(S(=O)(=O)c3ccc4c(c3)CCCN4C(C)=O)CC2)c1 | inactive
41 | Cc1nc2ccccc2cc1OCc1ccc(Cl)cc1 | inactive
42 | O=C(O)c1cc(/C=C/c2ccc(N3CCOCC3)c([N+](=O)[O-])c2)nc2ccccc12 | inconclusive: 32.6 µM [falling, partial curve, poor fit]
43 | CN(Cc1ccccc1)CC(O)COc1ccc(CNCc2cccnc2)cc1 (centres undefined) | inconclusive: 3.66 µM [falling, full curve]
44 | O=C(COC(=O)CNS(=O)(=O)c1ccccc1)Nc1ncc(Cl)cc1Cl | inactive

Sorted by number of heavy atoms (descending): three of the compounds above
Row | Structure (SMILES) | Potency
23 | CCCN(CCC)CCCNC(=O)C1c2cc(OC)c(OC)cc2C(=O)N(C)C1c1cccnc1 (centres undefined) | inconclusive: 0.517 µM [activator, full curve, poor fit]
38 | COc1cc2c(cc1NC(=S)NC(=O)/C=C/c1ccco1)oc1ccccc12 | inconclusive: 29.1 µM [falling, partial curve, poor fit]
24 | O=[N+]([O-])c1ccc(N2CCN(S(=O)(=O)c3cnc[nH]3)CC2)cc1 | inconclusive: 25.9 µM [falling, partial curve, poor fit]

(more compounds)

Row | Structure (SMILES) | Potency
45 | Cc1nn(Cc2cccc(F)c2)c(C)c1NC(=O)c1ccc(COc2ccccc2Cl)cc1 | inconclusive: 23.1 µM [falling, single point]
46 | COc1ccccc1NC(=O)CN1CCN(CC(=O)Nc2ccc(Cl)c(C(F)(F)F)c2)CC1 | inconclusive: 20.6 µM [falling, partial curve]
47 | CN(C)S(=O)(=O)c1cccc(NC(=O)COc2nc3ccccc3nc2N2CCOCC2)c1 | inconclusive: 18.4 µM [falling, partial curve]
48 | COc1ccc(CNC(=S)Nc2ccccc2Cl)cc1 | inactive
49 | Cc1cccc2cc(C#N)c(NCCNC(=O)COc3ccccc3)nc12 | inconclusive: 11.6 µM [activator, partial curve, poor fit]
50 | O=C(N/N=C/c1c[nH]c2ccccc12)c1ccn(Cc2ccc(Cl)cc2Cl)n1 | inconclusive: 32.6 µM [falling, partial curve, poor fit]
51 | CCCCN(C)C(=O)CCC(=O)Nc1ccc2nc(N3CCOCC3)cc(C)c2c1 | inconclusive: 29.1 µM [activator, single point]
52 | Cc1ccc(NC(=O)/C=C\C(=O)N(c2ccc(C(C)C)cc2)C(C(=O)NCc2ccco2)c2ccc(Cl)cc2)cc1 (centres undefined) | inconclusive: 29.1 µM [falling, single point]
53 | O=C(/C=C/c1cccc([N+](=O)[O-])c1)Nc1cccc(NC(=O)c2ccco2)c1 | inconclusive: 18.4 µM [falling, single point]
54 | O=Cc1cn(-c2ccccc2)nc1-c1cc2cc(O)ccc2oc1=O | inconclusive: 13 µM [activator, partial curve]
55 | N#C/C(=N\Nc1ccc(Cl)cc1)C(=N)N1CCCCC1 | inconclusive: 16.4 µM [falling, partial curve]
56 | COc1ccc(S(=O)(=O)Cc2ccc(C(=O)NC3CCCCCC3)o2)cc1 | inactive
57 | O=c1cc(-c2ccc(O)cc2)oc2cc(O)cc(O)c12 | inconclusive: 18.4 µM [falling, single point]
58 | Cc1ccc(NC2=C/C(=N\S(=O)(=O)c3cccs3)c3ccccc3C2=O)c(C)c1 | active: 18.4 µM
59 | CC(C)c1ccc(/C=C2\SC(=S)N(CCC(=O)NCCCn3ccnc3)C2=O)cc1 | inconclusive: 2.59 µM [activator, partial curve, poor fit]
60 | CCOc1cc(C(N)=O)cc(Cl)c1OCc1ccccc1 | inconclusive: 32.6 µM [activator, partial curve, poor fit]
61 | Nc1c(-c2cccs2)cnn1-c1nc(-c2ccc(F)cc2)cs1 | inconclusive: 4.61 µM [falling, full curve]
62 | CCOC(=O)c1cc([N+](=O)[O-])cc([N+](=O)[O-])c1Sc1ncnc2nc[nH]c12 | inconclusive: 23.1 µM [falling, partial curve, poor fit]
63 | CN(CC(O)COc1ccc(OCC(O)CN(C)C2CCCCC2)cc1)C1CCCCC1 (centres undefined) | inconclusive: 25.9 µM [falling, single point]
64 | CCOc1ccc(CCNC(=O)c2cccc(S(=O)(=O)N3CCCC3)c2)cc1OCC | inconclusive: 16.4 µM [falling, partial curve, poor fit]
